## Library screen at single concentrations

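Phenotypic screen: M. tuberculosis growth, glucose 7H9 medium, 3 days; the read-out is not stated. Compounds at 50 µM. Direction is inferred from retests: higher values go with more growth inhibition. Size under these conditions: about 69,000 compounds, about 760 of them at 50% or above in at least one test.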

Results are given as percent effect.
How 0% and 100% were set is not recorded. Most values in the screen are low, and negative values occur.
This is an unselected part of the compounds tested.
Two or more numbers in one place are separate tests of the same structure; such repeats can differ widely.

{"smiles": "[H][C@]12CN(c3ncccn3)C[C@@]1([H])S(=O)(=O)CC[C@@H]2C(=O)NC(C)C", "Percent Effect": "0.2849 and 27.61"}
{"smiles": "CCCNc1ncc(CN2CCC3(CCNC(=O)CC3)CC2)cn1", "Percent Effect": 20.28}
{"smiles": "CCc1c(C)sc(NC(=O)CN2CCN(CC)CC2)c1C(=O)OC", "Percent Effect": "73.38 and 81.48"}
{"smiles": "CN(Cc1cc2n(n1)CCN(C(=O)[C@H]1CCCO1)C2)Cc1nccs1", "Percent Effect": "-14.52 and -57.5"}
{"smiles": "CC(C)[C@H]1CN(Cc2c[nH]cn2)C[C@@H]1NC(=O)CC1CCC1", "Percent Effect": -18.94}
{"smiles": "COc1cccc(CN2CCN(c3cccc(C(C)C)n3)CC2)c1F", "Percent Effect": 21.83}
{"smiles": "CN(C)c1nccc(C2CCN(c3ncccn3)CC2)n1", "Percent Effect": 54.57}
{"smiles": "Cc1ccccc1CC(C)NCc1c(C)nn(C)c1N1CCOCC1.Cl", "stereo": "stereo unspecified", "Percent Effect": "5.157 and 9.497"}
{"smiles": "CCCc1nnc(N2C[C@@H](C)[C@@](C)(O)C2)s1", "Percent Effect": 28.17}
{"smiles": "CCc1noc(C(C)N2CCN(CC(C)C)CC2)n1", "stereo": "stereo unspecified", "Percent Effect": -19.32}
{"smiles": "CCn1ccc(-c2nnc(SCC(=O)Nc3ccc(C)cc3)n2CC)n1", "Percent Effect": "0.07784 and 10.97"}
{"smiles": "CC(C)(C)CNS(=O)(=O)C1CS(=O)(=O)c2ccccc21", "stereo": "stereo unspecified", "Percent Effect": 10.92}
{"smiles": "CCc1ccc(CN2CCN(c3ncc(Cl)cn3)CC2)nc1", "Percent Effect": 24.83}
{"smiles": "CCc1nnc2n1CCN(Cc1ncc(-c3ccccc3)o1)C2", "Percent Effect": 15.12}
{"smiles": "O=C(Cn1c(=O)oc2ccccc21)N1Cc2cnn(CCO)c2C1", "Percent Effect": 10.36}
{"smiles": "NS(=O)(=O)N1CCc2ccc(NC(=O)Cc3ccccc3F)cc21", "Percent Effect": "6.778 and 0.08938"}
{"smiles": "Cc1cc(C(=O)N2CCCC2)ccc1NCC(=O)N1CCOCC1", "Percent Effect": 18.75}
{"smiles": "O=C(c1ccco1)N1CCC2(CCC(=O)N2Cc2cccc(F)c2)CC1", "Percent Effect": -9.768}
{"smiles": "CCc1cnc(CN2CCC(N(C)Cc3noc(C)n3)C2)o1", "stereo": "stereo unspecified", "Percent Effect": 10.63}
{"smiles": "CCn1cc(C(=O)N(C)Cc2c(F)cccc2Cl)cn1", "Percent Effect": "11.23 and 12.83"}
{"smiles": "Cn1ccnc1COc1ccc(CSc2nnnn2C)cc1", "Percent Effect": -22.45}
{"smiles": "CC(C)NC(=O)c1cccc(Oc2ccc3nncn3n2)c1", "Percent Effect": -4.377}
{"smiles": "Cn1nc(CNC(=O)C2CCC2)cc1C1CC1", "Percent Effect": 7.791}
{"smiles": "CSCC(C)(O)CNc1ncccc1C(F)(F)F", "stereo": "stereo unspecified", "Percent Effect": 4.129}
{"smiles": "COc1ccccc1OCCCc1cncc(C(N)=O)c1", "Percent Effect": "0.3902 and -9.946"}
{"smiles": "COc1ccc(OC)c(CN2CCC(c3cc(O)nc(C)n3)C2)c1", "stereo": "stereo unspecified", "Percent Effect": 3.066}
{"smiles": "CCc1ccc(C(=O)N2CCCCC2CNS(C)(=O)=O)o1", "stereo": "stereo unspecified", "Percent Effect": -2.504}
{"smiles": "CN1CCn2c(-c3ccccc3)cnc2C12CCN(CC1CC1)CC2.O=C(O)C(F)(F)F.O=C(O)C(F)(F)F.O=C(O)C(F)(F)F", "Percent Effect": "1.418 and 0.1524"}
{"smiles": "CN(C)CCN1CCN(C(=O)c2ccn(C)c(=O)c2)CC1", "Percent Effect": -21.84}
{"smiles": "Cn1cc(CN2CCCC(CCc3ccccc3C(F)(F)F)C2)cn1", "stereo": "stereo unspecified", "Percent Effect": 22.45}
{"smiles": "Cn1cccc1C(=O)NCc1cn2c(n1)CN(S(=O)(=O)C1CC1)CC2", "Percent Effect": -22.83}
{"smiles": "Cc1nc(C2CCCN(C(=O)CCCOc3cccc(F)c3)C2)no1", "stereo": "stereo unspecified", "Percent Effect": -3.613}
{"smiles": "Cc1nn(C)c(N(C)C)c1CNC1CCCCNC1=O", "stereo": "stereo unspecified", "Percent Effect": 8.896}
{"smiles": "CNC(=O)CN1CCCC(Cc2ccccc2OC)C1", "stereo": "stereo unspecified", "Percent Effect": 0.9195}

Some entries from above, unchanged:

* CC(C)NC(=O)c1cccc(Oc2ccc3nncn3n2)c1 | -4.377%
* CNC(=O)CN1CCCC(Cc2ccccc2OC)C1 (stereo unspecified) | 0.9195%
* CCc1noc(C(C)N2CCN(CC(C)C)CC2)n1 (stereo unspecified) | -19.32%
* O=C(c1ccco1)N1CCC2(CCC(=O)N2Cc2cccc(F)c2)CC1 | -9.768%

Source: ChEMBL document CHEMBL3988442, “University of Dundee, Small-Polar-MMV Screening Library” (2021).